Out of some 53,000 sequences screened, about 3,700 (7%) were called active.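 How the source made its calls: active means gene knockdowns whose robust z-score for IL-1 alpha signal is at least 2 or at most -2, so actives lie on both sides; inactive means the rest.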 The list shows a part of the results.

The nature of the experiment: Components of the Cytosolic LPS Sensing Pathway: Gene Identification via Genome-wide siRNA Screen.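 Further: robust z of the log signal after scaling to non-targeting control siRNA wells of the plate.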 As to conditions: RAW264.7 macrophages, IL-1a HTRF, actives lie on both sides, screened at 100 nM (by protocol), cells primed 5 h with Pam3CSK4 first. The method in brief:
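IL-1a HTRF of supernatants after 24 hour LipidA transfection of Pam3CSK4-primed (5 hours) RAW264.7 cells, 48h post-siRNA transfection (100 nM). Scores: percent of plate negative-control median, then log-based robust z-score.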
As for CCUAGGUCAUACCAAUAUUTT against Spin4, the z-score is inactive: -0.487.

Take GCAGACCCAGUUUUGACAATT against Llgl1: the z-score was inactive: -0.0122.

On to CCGUCAAACUACAGUUUGATT against Tmem204, for which the z-score was inactive: 0.379.

Take CUUUUCAUCACGAUCCUCUTT against Olfr998: the z-score was inactive: 0.0861.

With GGAGGGAGAGUGAAUUGUCTT against Hmgn3, the z-score was inactive: 1.2.

For the sequence CCUGGAAACUAUUUUGAUGTT against Katnal2, the z-score was inactive: 0.0379.

In the case of GCCACAGGCCAAGAUCAUUTT against Pafah1b2, the z-score is inactive: -0.614.

For the sequence GGUUGCUACAUGGUUAAUUTT against Amz1, the z-score was inactive: -0.453.

Turning to GGAGAUGCCUCACAUGCAGTT against Col8a1, the z-score was inactive: 1.22.

Turning to GGAAAACCUACCGAAGUUATT against Irf3, the z-score was active: 2.79.

For GGCAGAUAAGAAAAAUCCUTT against Stac3, the z-score is inactive: 1.12.

Consider GGUGUAUCGGAACAGUGAGTT against Det1, for which the z-score is active: -2.8.

As to GGGUAUCUUCUGGAAAACATT against Angptl4, the z-score was inactive: 1.93.

With GGAUUCAAACAAUGAGCUCTT against Fam126b, the z-score is inactive: 0.9.

Regarding GCACUACAAAUUUAUACCUTT against U2surp, the z-score was inactive: -0.0231.

Regarding GGCCUUCAGUCAAGCAUCATT against Myom1, the z-score is inactive: 0.906.

Turning to GGAGAAGUGGAAAAGCAUGTT against Hcls1, the z-score is inactive: -1.38.

In the case of GGAUGUCGGCGGUAAAUGATT against Ceacam18, the z-score is inactive: -0.814.

Take GGACACAAUCCAGAACCAGTT against Angpt4: the z-score was inactive: -0.189.

Take GGUUUCAUGUUCUUUCUAATT against Cxcl14: the z-score is inactive: 0.081.

As for CGUUGUCAACUUUAUUUGCTT against Sar1a, the z-score was inactive: 1.55.

On to CCAUUUAUGGAAUACACCUTT against Tmem150b, for which the z-score is inactive: 0.0118.

With GGAAAAGAACAGAAUAUAGTT against Dcc, the z-score is inactive: -0.0927.

CCCAAAUAAAGUUCACUGGTT against Zfp821: the z-score was inactive: -1.69.

In the case of GGAGCCCAGAACAGAUAAUTT against Chit1, the z-score was inactive: -0.305.

On to CCUUUGAUAUGGGCACAACTT against Nox3, for which the z-score was inactive: -0.86.

In the case of GGGAAAGAAGAAACAAGCATT against Rgs18, the z-score is inactive: -0.474.

In the case of GCCUGAGACCCUAGAUGCUTT against Zfp661, the z-score was inactive: 0.244.

With GGGUGUUGUGCGAAAAGAATT against Cxcl1, the z-score is inactive: -0.443.

Take CGAUGAGCUAAGAGAGUCCTT against Cand2: the z-score was active: 3.09.

As to GGCUUGCUUGUUCAGACACTT against Olfr1324, the z-score was inactive: 0.851.

For GGUCUAUGCUUUGCUUUACTT against Dmap1, the z-score is inactive: -0.157.

For the sequence GGCCAGAAAGGCAGCAAAGTT against Msgn1, the z-score is inactive: -1.03.

On to CCAAGAUAUCGACUGAUAUTT against Slc5a9, for which the z-score is inactive: 0.215.

On to GGUGUUGAUCCUAUUAUUUTT against Nup54, for which the z-score is inactive: -1.67.

As to CGUAUAUUUUGGGCCAACATT against Zfp612, the z-score is inactive: 0.0694.

As for GCUGGUGAACCAAAAACUCTT against Ccdc3, the z-score was inactive: -0.366.

Consider GUGUGAACACAAUCAACCUTT against Ifna6, for which the z-score was inactive: -1.74.

As for GGCUUCCAAGCAAAAAUCUTT against Krtcap2, the z-score was inactive: 0.695.

On to GGUAACUGAUUGCUUAGAUTT against Smndc1, for which the z-score is inactive: 0.836.

For the sequence CCCAAGUGAACUAAUAAAGTT against Mrps15, the z-score was inactive: -0.254.

As to GGUAAAAUUUGACGACACGTT against Klhl6, the z-score was inactive: -0.421.

In the case of GGUUGAUUCCAACGACAUCTT against Tinagl1, the z-score is inactive: -0.173.

Take GCCGAAGUGUUCUACGAUGTT against Mettl22: the z-score was inactive: 0.86.

With GGAUCAAGUGGCUUCUGUGTT against Olfr1099, the z-score is inactive: -0.394.

Regarding CCCACCUAGGUUCAUCCCATT against Fat1, the z-score is inactive: -1.4.

On to CGCAUUUAACUCCUUACUCTT against Slc25a12, for which the z-score was inactive: -0.414.

Turning to GCUACUGACCAUUCUAACUTT against Tmem198b, the z-score was inactive: 0.264.

With GCAGUUGGCAGGCUAAAAATT against Mff, the z-score was inactive: 1.98.

Take GUACUUCUGGGAAGAAGAGTT against Podxl2: the z-score was inactive: -0.876.

Regarding CCUUAGGAUCGUCUUAUUATT against Zic2, the z-score is inactive: 0.619.

For the sequence GGGAGGUUCAAAAACUAAUTT against Tmem220, the z-score is inactive: -1.04.

Consider GGUGCCCAUGCUUGUAGGATT against Cstdc1, for which the z-score is active: 2.03.

With GUUUAUGGCCUCCUGUUGCTT against Gpbar1, the z-score is inactive: -0.773.

Turning to GGGAGCCAAAGUGAGAUUUTT against Azin2, the z-score was inactive: 0.736.

For GGUCAUCGUGUGCAACCUCTT against Zcchc3, the z-score is active: -3.24.

Consider CCAUCCAGUAAGGUUAUUCTT against Npy5r, for which the z-score was inactive: 1.55.

For the sequence GGUUCACCUGCAUCAUUGGTT against Smc1b, the z-score was inactive: -1.86.

On to GCCAGGCAAAUUACAUCGCTT against Shroom1, for which the z-score was inactive: 0.303.

For the sequence CCUGUAAGAUGUUUCGGCCTT against Zdhhc18, the z-score was inactive: 1.04.

On to GGAUGUAAAGAUUAGCGUGTT against Dgcr8, for which the z-score is inactive: 0.342.

GGAUAACUGCUUCAUUUCCTT against Agbl1: the z-score was inactive: 0.62.

Take CCCGUGGUCCUACAUUGUUTT against Cdon: the z-score was active: 2.39.

Consider GCAGGUGAAGAGUGAUUUUTT against Il10, for which the z-score was inactive: 0.318.

Regarding GGAAUGUCUAUCACAAUGGTT against Vmn1r230, the z-score is inactive: 1.78.

In the case of GGAUUCAGUGGCUAUCAACTT against Olfr770, the z-score is inactive: -1.73.

With CGUUGUGCAAUUUAUACUATT against Zfp84, the z-score was inactive: 0.652.

Turning to “CGGCCUAACAGCCAGACUUTT against 1700013G24Rik”, the z-score is inactive: 0.9.

In the case of GGCCAAUUCACCAACGGCATT against Jph2, the z-score was inactive: 0.632.

Consider GGAAGUCAAGGUGAUUUCATT against Nip7, for which the z-score was inactive: 1.12.

GGCAGUCAAGGCUAUGGACTT against Taf15: the z-score is inactive: -0.111.

As to GGACGACUGAGUCUUUGAATT against Il20, the z-score is inactive: 0.527.

Turning to GGCUCUGUGAUGGUCUUACTT against Olfr446, the z-score is inactive: -1.1.

For the sequence GGAAAACCAGCACAAUUUATT against Cadm1, the z-score was active: 2.49.

For the sequence GCAGUACCCUUACAAUAAUTT against Ndufb8, the z-score was inactive: 0.931.

In the case of GCUAUUCUGUCUACGUGUATT against H2bc18, the z-score was inactive: -0.356.

On to GGAUCUUCUGGAUAGAAUGTT against Prc1, for which the z-score was inactive: 1.16.

Take GCCCGAAAAAAACGUAGGATT against Map3k14: the z-score is inactive: 0.58.

Consider GGGUUUCUAUAUAUUUAGGTT against Cdca7, for which the z-score was inactive: 0.21.

On to GGAAGACUUCACUAAGAUCTT against Dpysl5, for which the z-score is inactive: 0.793.

As for GGUGGCAGUCACCAUUCUUTT against Il17rd, the z-score was inactive: -0.364.

Take “GGAAAGCUUGAAAAUGUUCTT against 4932438A13Rik”: the z-score was inactive: -0.575.

In the case of GGAAACAGUGAAAUGAGUATT against Tmem127, the z-score is inactive: -0.523.

As for GGGACAGUGUCCCUUCCUUTT against Cox15, the z-score is inactive: -0.23.

For GCCUUUUCCCGUCUGGAGATT against Glis1, the z-score was inactive: 0.122.

GCACGCUAAGUAACGAAAGTT against Ero1b: the z-score was inactive: 0.933.

GGGUUCUAGUCUUCGAGACTT against Kdm3b: the z-score is inactive: 0.695.

Regarding GGCGAGGGUUAAAAAUUUATT against Srsf1, the z-score is inactive: 0.388.

Turning to ACUAUCAUGAGUAGGCCCATT against Olfr32, the z-score was inactive: 0.41.

On to GCAGCGAGGUUAUCAGUAATT against Sox8, for which the z-score is inactive: -0.554.

For the sequence CCUAGAGAGACAUAUUGUUTT against Vstm4, the z-score is inactive: -0.206.

Take GUGCUUGUGGAGGGUUUCUTT against Ctsg: the z-score is inactive: -0.527.

CCAAAGACCUAUGUAAGCUTT against Akap1: the z-score is inactive: -0.283.

Consider GGUUUUAUCUGCUCUUCCATT against Cpb2, for which the z-score is inactive: -0.423.

For GCGAGAAUCUUUUUGAGCUTT against Rpgrip1, the z-score is inactive: 0.612.

For CCAUUCUCCCGAGAAACUATT against Cela2a, the z-score was inactive: -0.0545.

CCAUCUCAUCCCGAGUUAUTT against Xkr6: the z-score was inactive: 1.16.

Turning to GGACGGCAGAAGUACAAACTT against Esrra, the z-score is inactive: -0.234.

Consider GCUCAACGGUUUACCCUCATT against Ppp5c, for which the z-score is inactive: -0.48.

Regarding CCCAACAAAUUGAAACAUATT against Tbc1d31, the z-score is inactive: -0.821.

In the case of GCCAUACUUCCCUACAAAATT against Kctd19, the z-score was inactive: 0.233.

For GGACCAAGGAAUAUUUCCCTT against Serpinb9b, the z-score is inactive: -0.564.

For CCCAUAGCUAAUGAACCAATT against Sntg2, the z-score is inactive: -0.604.

Regarding GGGUAACACCUCAAGUUCATT against Rhag, the z-score is active: 2.33.

On to GGUCAUUGGUAGGUCCACUTT against Rusc2, for which the z-score was inactive: 0.338.

With GGCACAAAAGAAGAAGAUGTT against Retsat, the z-score was inactive: -1.7.

On to CGGCUUGGACAGAUUUAUCTT against Rer1, for which the z-score is inactive: 0.0516.

Source of the values: PubChem BioAssay AID1508600 (Functional Genomics Laboratory (NCATS/FGL), 2020).
